Test results published in paper PMC3053220.
Results are given in words; binding and its absence hold for the method and conditions named. Each block holds one substance with its values, some of them ahead of it.

Chains of the proteins cited; added tags and fusions are not shown. Lines headed by an entry give the natural chain unless they say otherwise; changes in a name come on top. A line that says so, or that is headed by a name, gives the form on record, which may keep a tag or linker. Residues count along the entry.
UniProt Q9HC98: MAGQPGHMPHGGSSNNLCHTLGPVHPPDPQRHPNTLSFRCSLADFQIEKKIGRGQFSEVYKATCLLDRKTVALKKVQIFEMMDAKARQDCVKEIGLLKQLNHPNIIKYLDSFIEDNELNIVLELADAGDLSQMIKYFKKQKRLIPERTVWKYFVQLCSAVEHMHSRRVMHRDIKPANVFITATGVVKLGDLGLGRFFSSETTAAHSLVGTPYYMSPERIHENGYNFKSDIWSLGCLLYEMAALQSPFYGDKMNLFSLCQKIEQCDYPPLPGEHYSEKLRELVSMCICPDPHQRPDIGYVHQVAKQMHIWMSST
truncated hNek6 wild-type kinase domain fused to a 6xHis tag (6xHis-hNek6(Δ1-44)): residues 45-313 of Q9HC98

What was measured:
[1] = target: activation loop mutant hNek6(S206A) fused to a 6xHis tag (6xHis-hNek6(S206A)) (human) (UniProt Q9HC98); test: SAXS; 6xHis-hNek6(S206A) at 0.5 and 1.0 mg/mL, 4°C, 50 mM HEPES pH 7.5, 5 mM sodium phosphate, 300 mM NaCl, 5% glycerol, 200 mM imidazole; molecular mass from I(0) with BSA as standard; both purified
[2] = target: activation loop mutant hNek6(S206A) fused to a 6xHis tag (6xHis-hNek6(S206A)) (human) (UniProt Q9HC98); test: SEC-MALS; Superdex 200 10/300 GL, 20°C, 0.2 to 0.7 mg/ml; two buffers: 50 mM HEPES pH 7.5, 5 mM sodium phosphate, 600 mM NaCl, 5% glycerol, and 50 mM HEPES pH 7.5, 5 mM sodium phosphate, 300 mM NaCl, 5% glycerol, 200 mM imidazole; both purified
[3] = target: dephosphorylated mutant hNek6(S206A) fused to a 6xHis tag (6xHis-hNek6(S206A)D) (human) (UniProt Q9HC98); test: as above
[4] = target: dephosphorylated wild-type hNek6 fused to a 6xHis tag (6xHis-hNek6wtD) (human) (UniProt Q9HC98); test: as above
[5] = target: truncated hNek6 wild-type kinase domain fused to a 6xHis tag (6xHis-hNek6(Δ1-44)) (human) (UniProt Q9HC98); test: as above

- binding [1]: no binding (tested: 0.5 and 1.0 mg/mL)
- binding [2]: no binding (tested: 0.2 to 0.7 mg/ml)
Substance: activation loop mutant hNek6(S206A) fused to a 6xHis tag (6xHis-hNek6(S206A)) (from UniProt Q9HC98-1 1-313) (enzyme)

- binding [3]: no binding (tested: 0.2 to 0.7 mg/ml)
Substance: dephosphorylated mutant hNek6(S206A) fused to a 6xHis tag (6xHis-hNek6(S206A)D) (from UniProt Q9HC98-1 1-313) (enzyme)

- binding [4]: no binding (tested: 0.2 to 0.7 mg/ml)
Substance: dephosphorylated wild-type hNek6 fused to a 6xHis tag (6xHis-hNek6wtD) (from UniProt Q9HC98-1 1-313) (enzyme)

- binding [5]: no binding (tested: 0.2 to 0.7 mg/ml)
Substance: truncated hNek6 wild-type kinase domain fused to a 6xHis tag (6xHis-hNek6(Δ1-44)) (from UniProt Q9HC98-1 45-313) (domain or fragment)
